PubChem BioAssay AID1259405 | NCATS | 2018
Here is one part, drawn at random, of about 50,000 reagents tested. Of all reagents, about 4,000 (8%) are marked active. 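Mouse siRNA library applied to hamster cells; one well for each siRNA.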 The numbers tell different reagents against one gene apart.

Aim: 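Knock-downs that lift recombinant protein yield in hamster ovary cells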 (primary screen)
System: Chinese hamster CHO-K1 ovary cells with stable secreted eGFP expression
Reagents: single siRNA against mouse genes, 0.8 pmol siRNA per well (2 µl of 400 nM stock)
Duration: 3 days
Measurement: 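Percent of the per-plate non-targeting control median for intracellular GFP per well by laser scanning cytometry and for cell viability by ATP luminescence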
Direction: GFP, % of control: higher = more GFP per well, higher productivity; viability (ATP), % of control: higher = more viable cells (more ATP)
Hit rule: 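Called active when intracellular GFP, relative to negative control, is at or above 120%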

Wasf1 #1 — GFP, % of control = 81.9; viability (ATP), % of control = 64.5; activity call = inactive
Wasf1 #2 — GFP, % of control = 99.3; viability (ATP), % of control = 66.8; activity call = inactive
Wasf1 #3 — GFP, % of control = 62.8; viability (ATP), % of control = 78.4; activity call = inactive
Rpap1 #1 — GFP, % of control = 30.6; viability (ATP), % of control = 44.1; activity call = inactive
Rpap1 #2 — GFP, % of control = 30.9; viability (ATP), % of control = 52.4; activity call = inactive
Rpap1 #3 — GFP, % of control = 67.4; viability (ATP), % of control = 63.6; activity call = inactive
Tepsin #1 — GFP, % of control = 107; viability (ATP), % of control = 65.4; activity call = inactive
Tepsin #2 — GFP, % of control = 59.3; viability (ATP), % of control = 94.8; activity call = inactive
Tepsin #3 — GFP, % of control = 142; viability (ATP), % of control = 95.6; activity call = active
Usp47 #1 — GFP, % of control = 26.9; viability (ATP), % of control = 39.1; activity call = inactive
Usp47 #2 — GFP, % of control = 66; viability (ATP), % of control = 38.4; activity call = inactive
Usp47 #3 — GFP, % of control = 116; viability (ATP), % of control = 68.3; activity call = inactive
Lrrk2 #1 — GFP, % of control = 139; viability (ATP), % of control = 104; activity call = active
Lrrk2 #2 — GFP, % of control = 65.1; viability (ATP), % of control = 70.8; activity call = inactive
Lrrk2 #3 — GFP, % of control = 71; viability (ATP), % of control = 78.4; activity call = inactive
Tgm6 #1 — GFP, % of control = 126; viability (ATP), % of control = 98.4; activity call = active
Tgm6 #2 — GFP, % of control = 95.3; viability (ATP), % of control = 160; activity call = inactive
Tgm6 #3 — GFP, % of control = 126; viability (ATP), % of control = 130; activity call = active
Zfp809 #1 — GFP, % of control = 56.8; viability (ATP), % of control = 39.2; activity call = inactive
Zfp809 #2 — GFP, % of control = 64.5; viability (ATP), % of control = 58.5; activity call = inactive
Zfp809 #3 — GFP, % of control = 98.9; viability (ATP), % of control = 88.4; activity call = inactive
Zfp623 #1 — GFP, % of control = 81.6; viability (ATP), % of control = 66.9; activity call = inactive
Zfp623 #2 — GFP, % of control = 53.2; viability (ATP), % of control = 53.4; activity call = inactive
Zfp623 #3 — GFP, % of control = 68.4; viability (ATP), % of control = 72.1; activity call = inactive
Ptprd #1 — GFP, % of control = 91.3; viability (ATP), % of control = 64.3; activity call = inactive
Ptprd #2 — GFP, % of control = 54.2; viability (ATP), % of control = 35.9; activity call = inactive
Ptprd #3 — GFP, % of control = 118; viability (ATP), % of control = 114; activity call = inactive
Stx18 #1 — GFP, % of control = 54.9; viability (ATP), % of control = 91.1; activity call = inactive
Stx18 #2 — GFP, % of control = 61.8; viability (ATP), % of control = 43.6; activity call = inactive
Zfp740 #1 — GFP, % of control = 71.9; viability (ATP), % of control = 90.6; activity call = inactive
Zfp740 #2 — GFP, % of control = 78.1; viability (ATP), % of control = 86.7; activity call = inactive
Zfp740 #3 — GFP, % of control = 39.6; viability (ATP), % of control = 37.3; activity call = inactive
Or5k1b #1 — GFP, % of control = 95.7; viability (ATP), % of control = 93.5; activity call = inactive
Or5k1b #2 — GFP, % of control = 84.9; viability (ATP), % of control = 79.2; activity call = inactive
Or5k1b #3 — GFP, % of control = 51.4; viability (ATP), % of control = 78.5; activity call = inactive
Clca3a2 #1 — GFP, % of control = 107; viability (ATP), % of control = 105; activity call = inactive
Clca3a2 #2 — GFP, % of control = 133; viability (ATP), % of control = 129; activity call = active
Clca3a2 #3 — GFP, % of control = 95.7; viability (ATP), % of control = 57.3; activity call = inactive
Ddhd1 #1 — GFP, % of control = 83.4; viability (ATP), % of control = 55.1; activity call = inactive
Ddhd1 #2 — GFP, % of control = 86.1; viability (ATP), % of control = 108; activity call = inactive
Ddhd1 #3 — GFP, % of control = 56.2; viability (ATP), % of control = 71.4; activity call = inactive
Rnf13 #1 — GFP, % of control = 86.1; viability (ATP), % of control = 92.4; activity call = inactive
Rnf13 #2 — GFP, % of control = 74.2; viability (ATP), % of control = 77.7; activity call = inactive
Rnf13 #3 — GFP, % of control = 72.8; viability (ATP), % of control = 70.7; activity call = inactive
Gatad1 #1 — GFP, % of control = 74.2; viability (ATP), % of control = 78; activity call = inactive
Gatad1 #2 — GFP, % of control = 109; viability (ATP), % of control = 86.6; activity call = inactive
Gatad1 #3 — GFP, % of control = 82.5; viability (ATP), % of control = 62.3; activity call = inactive
Il22b #1 — GFP, % of control = 122; viability (ATP), % of control = 94.8; activity call = active
Il22b #2 — GFP, % of control = 98.8; viability (ATP), % of control = 77; activity call = inactive
Il22b #3 — GFP, % of control = 62.3; viability (ATP), % of control = 86.5; activity call = inactive
Ptpn2 #1 — GFP, % of control = 64.7; viability (ATP), % of control = 79.4; activity call = inactive
Ptpn2 #2 — GFP, % of control = 53.8; viability (ATP), % of control = 29.7; activity call = inactive
Ptpn2 #3 — GFP, % of control = 86.2; viability (ATP), % of control = 88.7; activity call = inactive

Not a retest: entries from further up.
Rnf13 #1 — GFP, % of control = 86.1; viability (ATP), % of control = 92.4; activity call = inactive
Rnf13 #2 — GFP, % of control = 74.2; viability (ATP), % of control = 77.7; activity call = inactive
Rnf13 #3 — GFP, % of control = 72.8; viability (ATP), % of control = 70.7; activity call = inactive
Gatad1 #1 — GFP, % of control = 74.2; viability (ATP), % of control = 78; activity call = inactive
Gatad1 #2 — GFP, % of control = 109; viability (ATP), % of control = 86.6; activity call = inactive
